Experimental data taken from patent US20250287947A1, “BIOCIDES AND ADHESIVE BINDING THEREOF” (EBERHARD KARLS UNIVERSITÄT TÜBINGEN MEDIZINISCHE FAKULTÄT, priority 2022, published 2025).
Further values from the same series stand in other lists.

Test: Interactions between salt concentration, temperature and pH on the state of matter of Py-C12 (Example 3)
Assay type: physicochemical
Set-up: key: X: liquid; o: solid
Details: 5% w/v
Protocol: […] The samples were combined with NaCl solutions using concentrations between 0 and 3 M in water and subsequently incubated at temperatures between 24° C. and 45° C.

Q: With `CCCCCCCCCCCCNCCCNC(=O)C1CCC(=O)N1` (stereo not shown) [Py-C12, 5-N-carboxamido-2-pyrrolidone-N′-n-dodecyl propane-1,3-diamine] as the compound, how does the state of matter (pH 4.0, 24° C., 0.5M NaCl) read?
A: X

Q: What about the state of matter (pH 4.0, 24° C., 1.0M NaCl) of the same compound?
A: X

Q: What about the state of matter (pH 4.0, 24° C., 1.5M NaCl) of the same compound?
A: X

Q: And the state of matter (pH 4.0, 24° C., 2.0M NaCl)?
A: o

Q: What about the state of matter (pH 4.0, 24° C., 2.5M NaCl) of the same compound?
A: o

Q: And the state of matter (pH 4.0, 24° C., 3.0M NaCl)?
A: o

Q: And the state of matter (pH 4.0, 24° C., no NaCl)?
A: X

Q: And the state of matter (pH 4.0, 32° C., 0.5M NaCl)?
A: X

Q: And the state of matter (pH 4.0, 32° C., 1.0M NaCl)?
A: X

Q: And the state of matter (pH 4.0, 32° C., 1.5M NaCl)?
A: X

Q: What about the state of matter (pH 4.0, 32° C., 2.0M NaCl) of the same compound?
A: X

Q: And the state of matter (pH 4.0, 32° C., 2.5M NaCl)?
A: o

Q: What about the state of matter (pH 4.0, 32° C., 3.0M NaCl) of the same compound?
A: o

Q: And the state of matter (pH 4.0, 32° C., no NaCl)?
A: X

Q: And the state of matter (pH 4.0, 36° C., 0.5M NaCl)?
A: X

Q: And the state of matter (pH 4.0, 36° C., 1.0M NaCl)?
A: X

Q: And the state of matter (pH 4.0, 36° C., 1.5M NaCl)?
A: X

Q: What about the state of matter (pH 4.0, 36° C., 2.0M NaCl) of the same compound?
A: X

Q: And the state of matter (pH 4.0, 36° C., 2.5M NaCl)?
A: X

Q: What about the state of matter (pH 4.0, 36° C., 3.0M NaCl) of the same compound?
A: X

Q: What about the state of matter (pH 4.0, 36° C., no NaCl) of the same compound?
A: X

Q: What about the state of matter (pH 4.0, 45° C., 0.5M NaCl) of the same compound?
A: X

Q: And the state of matter (pH 4.0, 45° C., 1.0M NaCl)?
A: X

Q: What about the state of matter (pH 4.0, 45° C., 1.5M NaCl) of the same compound?
A: X

Q: What about the state of matter (pH 4.0, 45° C., 2.0M NaCl) of the same compound?
A: X

Q: What about the state of matter (pH 4.0, 45° C., 2.5M NaCl) of the same compound?
A: X

Q: What about the state of matter (pH 4.0, 45° C., 3.0M NaCl) of the same compound?
A: X

Q: And the state of matter (pH 4.0, 45° C., no NaCl)?
A: X

Q: And the state of matter (pH 7.0, 24° C., 0.5M NaCl)?
A: X

Q: And the state of matter (pH 7.0, 24° C., 1.0M NaCl)?
A: X

Q: What about the state of matter (pH 7.0, 24° C., 1.5M NaCl) of the same compound?
A: X

Q: What about the state of matter (pH 7.0, 24° C., 2.0M NaCl) of the same compound?
A: o

Q: And the state of matter (pH 7.0, 24° C., 2.5M NaCl)?
A: o

Q: What about the state of matter (pH 7.0, 24° C., 3.0M NaCl) of the same compound?
A: o

Q: What about the state of matter (pH 7.0, 24° C., no NaCl) of the same compound?
A: X

Q: What about the state of matter (pH 7.0, 28° C., 0.5M NaCl) of the same compound?
A: X

Q: And the state of matter (pH 7.0, 28° C., 1.0M NaCl)?
A: X

Q: And the state of matter (pH 7.0, 28° C., 1.5M NaCl)?
A: X

Q: And the state of matter (pH 7.0, 28° C., 2.0M NaCl)?
A: X

Q: What about the state of matter (pH 7.0, 28° C., 2.5M NaCl) of the same compound?
A: o

Q: And the state of matter (pH 7.0, 28° C., 3.0M NaCl)?
A: o

Q: And the state of matter (pH 7.0, 28° C., no NaCl)?
A: X

Q: What about the state of matter (pH 7.0, 32° C., 0.5M NaCl) of the same compound?
A: X

Q: What about the state of matter (pH 7.0, 32° C., 1.0M NaCl) of the same compound?
A: X

Q: And the state of matter (pH 7.0, 32° C., 1.5M NaCl)?
A: X

Q: What about the state of matter (pH 7.0, 32° C., 2.0M NaCl) of the same compound?
A: X

Q: What about the state of matter (pH 7.0, 32° C., 2.5M NaCl) of the same compound?
A: X

Q: And the state of matter (pH 7.0, 32° C., 3.0M NaCl)?
A: o

Q: What about the state of matter (pH 7.0, 32° C., no NaCl) of the same compound?
A: X

Q: And the state of matter (pH 7.0, 36° C., 0.5M NaCl)?
A: X

Q: What about the state of matter (pH 7.0, 36° C., 1.0M NaCl) of the same compound?
A: X

Q: What about the state of matter (pH 7.0, 36° C., 1.5M NaCl) of the same compound?
A: X

Q: What about the state of matter (pH 7.0, 36° C., 2.0M NaCl) of the same compound?
A: X

Q: What about the state of matter (pH 7.0, 36° C., 2.5M NaCl) of the same compound?
A: X

Q: What about the state of matter (pH 7.0, 36° C., 3.0M NaCl) of the same compound?
A: X

Q: What about the state of matter (pH 7.0, 36° C., no NaCl) of the same compound?
A: X

Q: What about the state of matter (pH 7.0, 45° C., 0.5M NaCl) of the same compound?
A: X

Q: And the state of matter (pH 7.0, 45° C., 1.0M NaCl)?
A: X

Q: What about the state of matter (pH 7.0, 45° C., 1.5M NaCl) of the same compound?
A: X

Q: And the state of matter (pH 7.0, 45° C., 2.0M NaCl)?
A: X

Q: And the state of matter (pH 7.0, 45° C., 2.5M NaCl)?
A: X

Q: What about the state of matter (pH 7.0, 45° C., 3.0M NaCl) of the same compound?
A: X

Q: And the state of matter (pH 7.0, 45° C., no NaCl)?
A: X

Q: And the state of matter (pH 9.0, 28° C., 0.5M NaCl)?
A: o

Q: And the state of matter (pH 9.0, 28° C., 1.0M NaCl)?
A: o

Q: And the state of matter (pH 9.0, 28° C., 1.5M NaCl)?
A: o

Q: What about the state of matter (pH 9.0, 28° C., 2.0M NaCl) of the same compound?
A: o

Q: And the state of matter (pH 9.0, 28° C., 2.5M NaCl)?
A: o

Q: And the state of matter (pH 9.0, 28° C., 3.0M NaCl)?
A: o

Q: And the state of matter (pH 9.0, 28° C., no NaCl)?
A: o

Q: What about the state of matter (pH 9.0, 32° C., 0.5M NaCl) of the same compound?
A: o

Q: And the state of matter (pH 9.0, 32° C., 1.0M NaCl)?
A: o

Q: And the state of matter (pH 9.0, 32° C., 1.5M NaCl)?
A: o

Q: What about the state of matter (pH 9.0, 32° C., 2.0M NaCl) of the same compound?
A: o

Q: What about the state of matter (pH 9.0, 32° C., 2.5M NaCl) of the same compound?
A: o

Q: And the state of matter (pH 9.0, 32° C., 3.0M NaCl)?
A: o

Q: What about the state of matter (pH 9.0, 32° C., no NaCl) of the same compound?
A: o

Q: And the state of matter (pH 9.0, 36° C., 0.5M NaCl)?
A: o

Q: What about the state of matter (pH 9.0, 36° C., 1.0M NaCl) of the same compound?
A: o

Q: And the state of matter (pH 9.0, 36° C., 1.5M NaCl)?
A: o

Q: What about the state of matter (pH 9.0, 36° C., 2.0M NaCl) of the same compound?
A: o

Q: And the state of matter (pH 9.0, 36° C., 2.5M NaCl)?
A: o

Q: What about the state of matter (pH 9.0, 36° C., 3.0M NaCl) of the same compound?
A: o

Q: What about the state of matter (pH 9.0, 36° C., no NaCl) of the same compound?
A: o

Q: And the state of matter (pH 9.0, 45° C., 0.5M NaCl)?
A: X

Q: And the state of matter (pH 9.0, 45° C., 1.0M NaCl)?
A: X

Q: What about the state of matter (pH 9.0, 45° C., 1.5M NaCl) of the same compound?
A: X

Q: And the state of matter (pH 9.0, 45° C., 2.0M NaCl)?
A: X

Q: What about the state of matter (pH 9.0, 45° C., 2.5M NaCl) of the same compound?
A: X

Q: What about the state of matter (pH 9.0, 45° C., 3.0M NaCl) of the same compound?
A: X

Q: What about the state of matter (pH 9.0, 45° C., no NaCl) of the same compound?
A: X
